Results taken from publication PMC10326026.
No constants are given. Whether binding was seen depends on the method and setting. Binding seen in cells or lysates may run through a third protein. These calls come from enrichment with a bait or labelling near it, and not all partners need be listed. Where a sequence is shown, tags or fusion partners need not be part of it.

Chains of the proteins cited; added tags and fusions are not shown.
UniProt P16403: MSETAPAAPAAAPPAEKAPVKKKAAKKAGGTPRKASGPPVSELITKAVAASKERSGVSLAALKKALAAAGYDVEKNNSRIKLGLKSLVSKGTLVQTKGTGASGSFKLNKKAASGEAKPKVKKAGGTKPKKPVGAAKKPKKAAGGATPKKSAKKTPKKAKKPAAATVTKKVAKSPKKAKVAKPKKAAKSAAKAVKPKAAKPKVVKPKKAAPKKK
UniProt P51784: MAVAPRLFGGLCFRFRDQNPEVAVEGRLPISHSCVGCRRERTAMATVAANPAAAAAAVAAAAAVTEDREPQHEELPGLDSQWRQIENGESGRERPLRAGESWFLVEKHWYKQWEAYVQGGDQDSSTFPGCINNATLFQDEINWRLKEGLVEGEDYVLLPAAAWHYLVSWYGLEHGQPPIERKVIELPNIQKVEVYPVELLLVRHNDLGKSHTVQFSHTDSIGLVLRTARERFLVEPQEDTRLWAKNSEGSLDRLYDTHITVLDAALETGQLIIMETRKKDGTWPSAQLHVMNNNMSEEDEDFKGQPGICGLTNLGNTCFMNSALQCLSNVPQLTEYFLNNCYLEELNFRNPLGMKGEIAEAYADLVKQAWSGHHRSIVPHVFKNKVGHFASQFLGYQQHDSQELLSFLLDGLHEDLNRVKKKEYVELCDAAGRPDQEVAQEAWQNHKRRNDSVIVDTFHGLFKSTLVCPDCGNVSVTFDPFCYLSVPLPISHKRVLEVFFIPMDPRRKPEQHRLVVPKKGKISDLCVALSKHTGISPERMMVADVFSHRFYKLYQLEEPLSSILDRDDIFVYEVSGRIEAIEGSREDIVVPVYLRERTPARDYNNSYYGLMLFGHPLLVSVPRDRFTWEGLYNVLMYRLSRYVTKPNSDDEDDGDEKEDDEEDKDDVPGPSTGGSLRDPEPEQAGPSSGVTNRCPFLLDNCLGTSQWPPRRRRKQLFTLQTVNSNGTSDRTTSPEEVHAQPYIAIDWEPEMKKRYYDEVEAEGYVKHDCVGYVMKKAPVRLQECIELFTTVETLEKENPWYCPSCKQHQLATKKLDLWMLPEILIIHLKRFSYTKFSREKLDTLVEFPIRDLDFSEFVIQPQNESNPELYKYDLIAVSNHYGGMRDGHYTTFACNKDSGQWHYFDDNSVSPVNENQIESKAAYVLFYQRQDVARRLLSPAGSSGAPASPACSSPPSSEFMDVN

Molecular target: T1, Flag-LSH (lymphoid-specific helicase), expressed in HCT116 cells (human (cDNA from GES-1 cells)) (UniProt Q9NRZ9)
T1 sequence: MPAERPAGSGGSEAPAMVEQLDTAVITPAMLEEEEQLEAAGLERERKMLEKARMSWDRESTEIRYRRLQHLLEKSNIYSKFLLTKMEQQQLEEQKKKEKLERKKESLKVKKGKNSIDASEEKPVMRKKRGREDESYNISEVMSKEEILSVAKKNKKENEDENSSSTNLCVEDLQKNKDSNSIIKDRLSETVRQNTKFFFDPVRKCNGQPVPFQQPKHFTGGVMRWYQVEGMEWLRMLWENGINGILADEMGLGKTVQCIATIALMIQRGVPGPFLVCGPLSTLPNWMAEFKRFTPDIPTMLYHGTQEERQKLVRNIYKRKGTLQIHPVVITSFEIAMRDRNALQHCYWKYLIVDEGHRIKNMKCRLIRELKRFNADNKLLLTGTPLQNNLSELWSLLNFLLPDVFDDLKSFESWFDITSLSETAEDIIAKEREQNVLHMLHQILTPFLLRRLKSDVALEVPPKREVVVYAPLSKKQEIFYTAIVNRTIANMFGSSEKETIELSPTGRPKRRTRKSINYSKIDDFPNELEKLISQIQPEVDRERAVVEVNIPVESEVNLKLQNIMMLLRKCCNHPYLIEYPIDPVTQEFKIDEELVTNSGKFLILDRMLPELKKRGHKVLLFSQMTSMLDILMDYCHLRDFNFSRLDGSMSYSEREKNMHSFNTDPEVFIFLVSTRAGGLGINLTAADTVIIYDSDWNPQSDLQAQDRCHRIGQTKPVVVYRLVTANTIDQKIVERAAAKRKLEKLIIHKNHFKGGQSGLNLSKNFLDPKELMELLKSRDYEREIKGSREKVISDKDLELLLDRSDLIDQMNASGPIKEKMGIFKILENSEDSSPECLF
Experiment: affinity purification with mass spectrometry; Flag-LSH immunoprecipitated from HCT116 cells; proteins separated by SDS-PAGE, Coomassie-stained bands cut out and analysed by LC-MS/MS (NanoLC-Q EXACTIVE)

Substance | binding
histone cluster 1 H1 family member c (HIST1H1C), endogenous in HCT116 cells (from UniProt P16403 1-213) | binds
ubiquitin-specific protease 11 (USP11), endogenous in HCT116 cells (from UniProt P51784 1-963) (enzyme) | binds
